Data taken from PMC8520208.

Molecular target: T1, Flag-C2CD4A (C2 calcium dependent domain containing 4A), expressed in 293T cells (human) (UniProt Q8NCU7)
T1 sequence: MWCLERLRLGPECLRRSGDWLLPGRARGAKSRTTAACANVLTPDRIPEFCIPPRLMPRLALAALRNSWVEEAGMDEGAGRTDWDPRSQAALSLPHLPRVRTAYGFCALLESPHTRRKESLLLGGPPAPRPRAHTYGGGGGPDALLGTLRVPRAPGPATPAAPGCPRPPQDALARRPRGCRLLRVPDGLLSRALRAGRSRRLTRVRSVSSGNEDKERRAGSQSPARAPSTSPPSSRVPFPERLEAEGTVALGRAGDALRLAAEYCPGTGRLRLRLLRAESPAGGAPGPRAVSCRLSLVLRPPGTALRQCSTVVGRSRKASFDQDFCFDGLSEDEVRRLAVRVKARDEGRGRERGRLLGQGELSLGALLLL
Assay: affinity purification with mass spectrometry; 293 T cells transfected with Flag-C2CD4A, lysed in RIPA buffer (20 mM Tris-HCl pH 8, 137 mM NaCl, 0.5% Triton X-100, 2 mM EDTA); Flag-M2 agarose beads overnight, eluted by Flag peptides; SDS-PAGE bands specific to Flag-C2CD4A analysed by mass spectrometry; Flag-vector as control

binding: binds
Substance: p53 found in the Flag-C2CD4A immunoprecipitate from 293T cells (from UniProt P04637 1-393)

No constants are given. Whether binding was seen depends on the method and setting. Binding seen in cells or lysates may run through a third protein. A yes stands for co-enrichment or nearness to the bait. Other partners may have been found. Sequences can lack the tags named with a protein.
